Data reported in PubChem BioAssay (EPA / NIEHS).
The inconclusive results got no clear call from the source; some entries with a clear call stand among them for comparison. For some of these results: Where the call is inconclusive, the potency comes from a doubtful curve fit. Active and inactive are the calls of the source. Rule for the calls: active = hit-call score of the fitted dose curve at least 0.9, where 1 is the maximum; inconclusive = response in the unintended direction; inactive = score below 0.9.

Chains of the proteins cited; added tags and fusions are not shown. Lines headed by an entry give the natural chain unless they say otherwise; changes in a name come on top.
UniProt P11229: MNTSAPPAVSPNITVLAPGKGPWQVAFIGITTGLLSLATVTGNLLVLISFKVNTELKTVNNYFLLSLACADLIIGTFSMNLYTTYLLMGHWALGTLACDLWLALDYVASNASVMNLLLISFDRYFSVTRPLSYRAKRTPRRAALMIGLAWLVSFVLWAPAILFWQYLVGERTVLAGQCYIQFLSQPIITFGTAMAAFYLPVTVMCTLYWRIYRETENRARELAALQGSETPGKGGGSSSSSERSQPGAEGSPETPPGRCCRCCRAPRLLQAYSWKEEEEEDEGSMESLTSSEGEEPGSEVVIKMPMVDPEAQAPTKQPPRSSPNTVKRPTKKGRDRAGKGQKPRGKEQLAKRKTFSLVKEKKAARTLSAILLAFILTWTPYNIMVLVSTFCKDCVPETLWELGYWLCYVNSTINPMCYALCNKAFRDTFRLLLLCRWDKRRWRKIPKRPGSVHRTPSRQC
UniProt P20309, whole entry, looked up: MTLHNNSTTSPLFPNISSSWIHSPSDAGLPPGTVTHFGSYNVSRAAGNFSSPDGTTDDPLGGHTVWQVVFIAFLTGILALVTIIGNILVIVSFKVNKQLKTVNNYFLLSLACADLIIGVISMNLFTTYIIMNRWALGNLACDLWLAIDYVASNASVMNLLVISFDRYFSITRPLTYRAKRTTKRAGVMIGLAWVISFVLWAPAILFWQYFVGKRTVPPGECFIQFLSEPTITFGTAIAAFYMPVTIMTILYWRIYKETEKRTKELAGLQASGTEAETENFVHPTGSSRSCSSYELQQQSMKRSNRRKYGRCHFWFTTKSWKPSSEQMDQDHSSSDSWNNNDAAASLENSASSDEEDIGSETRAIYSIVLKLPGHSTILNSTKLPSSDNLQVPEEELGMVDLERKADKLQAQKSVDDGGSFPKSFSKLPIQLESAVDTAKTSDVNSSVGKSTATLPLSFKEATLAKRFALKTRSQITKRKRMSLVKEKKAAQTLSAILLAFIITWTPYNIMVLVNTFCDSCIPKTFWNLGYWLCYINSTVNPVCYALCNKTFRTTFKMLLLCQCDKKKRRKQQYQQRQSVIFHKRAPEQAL
UniProt Q15722: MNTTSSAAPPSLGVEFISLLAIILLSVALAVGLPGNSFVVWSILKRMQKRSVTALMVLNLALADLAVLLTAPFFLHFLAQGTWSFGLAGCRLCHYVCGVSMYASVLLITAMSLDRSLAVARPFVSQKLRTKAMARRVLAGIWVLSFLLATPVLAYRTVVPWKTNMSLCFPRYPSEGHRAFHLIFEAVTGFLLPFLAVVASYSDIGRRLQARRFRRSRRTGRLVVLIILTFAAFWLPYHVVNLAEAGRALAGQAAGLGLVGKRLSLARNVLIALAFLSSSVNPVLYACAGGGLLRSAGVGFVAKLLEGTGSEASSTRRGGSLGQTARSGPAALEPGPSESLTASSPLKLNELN
UniProt P08172, whole entry, looked up: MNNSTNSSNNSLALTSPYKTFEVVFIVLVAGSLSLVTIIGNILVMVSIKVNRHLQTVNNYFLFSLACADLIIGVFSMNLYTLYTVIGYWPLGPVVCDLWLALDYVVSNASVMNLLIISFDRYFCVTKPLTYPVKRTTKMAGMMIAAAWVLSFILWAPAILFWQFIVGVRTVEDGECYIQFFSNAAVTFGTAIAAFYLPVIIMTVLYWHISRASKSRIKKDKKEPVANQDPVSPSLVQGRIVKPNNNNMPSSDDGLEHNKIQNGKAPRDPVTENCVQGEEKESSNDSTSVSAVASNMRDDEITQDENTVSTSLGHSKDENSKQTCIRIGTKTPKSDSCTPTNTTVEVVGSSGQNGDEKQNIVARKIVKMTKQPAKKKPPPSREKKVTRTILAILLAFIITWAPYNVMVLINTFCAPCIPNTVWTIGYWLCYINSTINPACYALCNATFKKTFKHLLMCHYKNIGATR
UniProt P08912, whole entry, looked up: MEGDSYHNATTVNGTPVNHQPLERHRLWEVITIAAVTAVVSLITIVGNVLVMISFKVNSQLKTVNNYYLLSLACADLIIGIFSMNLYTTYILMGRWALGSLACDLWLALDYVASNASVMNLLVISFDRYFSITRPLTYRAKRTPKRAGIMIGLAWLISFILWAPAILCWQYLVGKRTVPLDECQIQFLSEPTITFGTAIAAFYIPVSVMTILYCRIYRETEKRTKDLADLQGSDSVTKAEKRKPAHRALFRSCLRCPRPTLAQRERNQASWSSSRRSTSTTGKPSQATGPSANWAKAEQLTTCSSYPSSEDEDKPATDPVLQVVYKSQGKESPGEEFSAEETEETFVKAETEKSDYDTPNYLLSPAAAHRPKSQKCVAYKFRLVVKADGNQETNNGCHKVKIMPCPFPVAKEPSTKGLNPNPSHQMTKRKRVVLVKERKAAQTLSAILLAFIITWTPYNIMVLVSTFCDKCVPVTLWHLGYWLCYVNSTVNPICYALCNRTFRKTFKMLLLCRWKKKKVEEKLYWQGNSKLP

Experiments:
[1] = biological target: Muscarinic acetylcholine receptor M1 (Homo sapiens) (UniProt P11229); experiment: NVS_GPCR_hM1: NovaScreen (NVS) G Protein-Coupled Receptor Assay for human Muscarinic, M1 Receptor (AID 2283270)
Protocol: NVS_GPCR_hM1 is a biochemical, single-readout assay that uses extracted gene-proteins from CHO in a cell-free assay. Measurements were taken 1 hour after chemical dosing in a 96-well plate.NVS_GPCR_hM1 is one of one assay component(s) measured or calculated from the NVS_GPCR_hM1 assay. It is designed to make measurements of radioligand binding, a form of binding reporter, as detected with scintillation counting signals by Filter-based radiodetection technology.Data from the assay component NVS_GPCR_hM1 was analyzed into 1 assay endpoint. This assay endpoint, NVS_GPCR_hM1, was analyzed in the positive analysis fitting direction relative to DMSO as the negative control and baseline of activity. […] Furthermore, this assay endpoint can be referred to as a primary readout, because the performed assay has only produced 1 assay endpoint. […]
Binding assays used specific radioligands (tritiated, iodinated) with non-radioactive competitive displacement ligands in agonist or antagonist protocols (as indicated) and various reference compounds and inhibitors to titrate specific binding to receptors and transporters. Most enzyme assays (CYPs, kinases, phosphatases, proteases, HDACs) used recombinant protein and specific substrates (fluorescence mostly, some colorimetric and radioactive) and inhibitors, followed by a biochemical separation of substrate and product. […]

[2] = biological target: Muscarinic acetylcholine receptor M3 (Homo sapiens) (UniProt P20309); experiment: NVS_GPCR_hM3: NovaScreen (NVS) G Protein-Coupled Receptor Assay for human Muscarinic, M3 Receptor (AID 2283272)
How it was run: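 Radioligand displacement binding on human M3 receptor in CHO-derived membranes, 1 h incubation, filter-based scintillation counting. Primary screen in duplicate at 25 uM; actives followed up in concentration series; loss of signal versus DMSO.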

[3] = biological target: human Leukotriene B4 Receptor 1 (LTB4-BLT1), LTB4R (gene 1241) (UniProt Q15722); experiment: NVS_GPCR_hLTB4_BLT1: NovaScreen (NVS) G Protein-Coupled Receptor Assay for human Leukotriene B4 Receptor 1 (LTB4-BLT1) (AID 2283271)
How it was run: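 Radioligand displacement binding on receptor extracted from human neutrophils, cell-free, 1 h after dosing; filter-based scintillation counting. Primary screen in duplicate at 25 uM, actives retested in concentration-response up to 50 uM; loss of signal versus DMSO.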

[4] = biological target: Muscarinic acetylcholine receptor M2 (Homo sapiens) (UniProt P08172); experiment: NVS_GPCR_hM2: NovaScreen (NVS) G Protein-Coupled Receptor Assay for human Muscarinic, M2 Receptor (AID 2283273)
How it was run: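 CHO membrane prep, radioligand + test compound, 1 h; filtration, scintillation count. Screen 25 uM duplicate → conc. series for actives. Readout: decrease in binding vs DMSO control.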

[5] = biological target: Muscarinic acetylcholine receptor M5 (Homo sapiens) (UniProt P08912); experiment: NVS_GPCR_hM5: NovaScreen (NVS) G Protein-Coupled Receptor Assay for human Muscarinic, M5 Receptor (AID 2283275)
How it was run: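 Radioligand displacement on CHO-derived membrane preparations, 1 h, filter-based scintillation counting. Single-concentration duplicate screen at 25 uM; hits (e.g. 30% inhibition) retested in singleton concentration-response up to 50 uM. Loss of binding fitted versus DMSO.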

`CCOC(=O)COc1ccc2c(c1)CC(NCC(O)c1cccc(Cl)c1)CC2` (configuration not stated) was tested, and the AC50 [1] was active: 4.73 µM and the AC50 [2] was active: 3.78 µM.

With `CCn1nc(Cc2ccccc2)cc1C1CCN(C[C@H]2C[C@H](N(C)[C@@H](C(=O)O)C(C)C)C[C@@H]2c2cccc(F)c2)CC1` the AC50 [1] was inconclusive: 25 µM.

With `c1ccc2c(c1)-c1cccc3c1c-2cc1ccccc13` the AC50 [2] was inconclusive: 0.321 µM.

In the case of `CC(C)(c1ccc(O)cc1)c1ccc(O)cc1`, the outcome [3] is reported as “inactive”.

For `CC(C)c1ccc(C=O)cc1`, the outcome [4] was “inactive”.

In the case of `Cc1nccn1-c1ccc(Sc2cccc(C3(C(N)=O)CCOCC3)c2)cc1`, the outcome [5] is reported as “inactive”.
